Reference: paper PMC10730134
These are yes or no findings as the source states them, for the method shown. Binding seen in cells or lysates may run through a third protein. Binding can be weak; no strength is given. Tags and fused reporters may be left off the sequences shown.

Target: ILK5-cLUC
Experiment: split reporter; firefly split-luciferase complementation imaging (LCI); nLUC and cLUC constructs co-infiltrated with Agrobacterium GV3101 into 4 week-old N. benthamiana leaves; luminescence after 3 days with D-luciferin, low-light CCD camera

B1: P2K1-nLUC (receptor, UniProt Q9LSR8 22-766)
chain: QQETSFVYESFLDRQNLYLDKSAIVLPSGLLQLTNASEHQMGHAFHKKPIEFSSSGPLSFSTHFVCALVPKPGFEGGHGIVFVLSPSMDFTHAESTRYLGIFNASTNGSSSYHVLAVELDTIWNPDFKDIDHNHVGIDVNSPISVAIASASYYSDMKGSNESINLLSGNPIQVWVDYEGTLLNVSVAPLEVQKPTRPLLSHPINLTELFPNRSSLFAGFSAATGTAISDQYILWWSFSIDRGSLQRLDISKLPEVPHPRAPHKKVSTLIILLPVCLAILVLAVLAGLYFRRRRKYSEVSETWEKEFDAHRFSYRSLFKATKGFSKDEFLGKGGFGEVYRGNLPQGREIAVKRVSHNGDEGVKQFVAEVVSMRCLKHRNLVPLFGYCRRKRELLLVSEYMPNGSLDEHLFDDQKPVLSWSQRLVVVKGIASALWYLHTGADQVVLHRDVKASNIMLDAEFHGRLGDFGMARFHEHGGNAATTAAVGTVGYMAPELITMGASTGTDVYAFGVFMLEVTCGRRPVEPQLQVEKRHMIKWVCECWKKDSLLDATDPRLGGKFVAEEVEMVMKLGLLCSNIVPESRPTMEQVVLYLNKNLPLPDFSPYTLGIGTFAPVLVDASSLVVSSASWSLSGPSMSSSSPNHSPYAWQSTDQPWGQTIDTKNSLHIVAEPEKPSPAVKMVTLPAEDPQSNHSSISSQRVQPVKREKRRLHQILVAFPWINKQYFKLGLPKHIVHVSLFFFLQLARL
Which binding does the source give for B1 here?
The binding was “binds”.
